Reference: PubChem BioAssay AID540256 (National Center for Advancing Translational Sciences (NCATS), 2011)
About 3,700 (1.2%) of roughly 300,000 compounds were called active. Inconclusive means that the source gave no clear call. Such entries were picked first, then a sample of the others. Calls come from the whole dose curve; tested in HEK293 cells. Potencies of inconclusive entries are doubtful fits and often do not repeat.
% is set by controls: 0 for no effect and ±100 for the full control effect; potency is the fitted concentration of half-maximal effect.

Assay: qHTS for Inhibitors of binding or entry into cells for Lassa Virus; note: nearly all actives have a fitted effect of over 50% in size
Conditions: Lassa virus pseudotype entry inhibition, cell reporter; activity change, negative = inhibition: at 37.9 µM (top of the series) unless noted
For `Cn1c(=N)n(CC(=O)c2ccccc2)c2ccccc21`, the Potency was active: 7.08 µM.
With `Cn1nc(C(=O)Nc2nc3ccccc3[nH]2)ccc1=O` the Potency was inconclusive: 35.5 µM [inhibitor, single point].
In the case of `Cc1ccc(Cn2ccnc2SCC(=O)Nc2nc3ccccc3s2)cc1`, the “activity change, negative = inhibition” value is reported as inactive: -19.7% [at 46.1 µM].
For `Cc1ccc(S(=O)(=O)Nc2ccccc2C=Nc2cccc(C)c2C)cc1`, the Potency was inconclusive: 12.6 µM [inhibitor, partial curve, poor fit].
With `CCOC(=O)C(NC(=O)c1cccc(Cl)c1)(OCc1ccc(F)cc1)C(F)(F)F` (centres undefined) the Potency was inconclusive: 32.6 µM [inhibitor, partial curve, poor fit].
With `CC(C)OC(=O)[C@H]1O[C@H](CCCCOCc2ccccc2)[C@@H](C)[C@H]2O[C@H]21` the Potency was inconclusive: 0.0168 µM [inhibitor, partial curve, poor fit].
For `Cc1cc2c(=O)n(Cc3ccco3)c(SCC(=O)c3ccc(Cl)s3)nc2s1`, the Potency was inconclusive: 10.3 µM [inhibitor, partial curve].
For `Nn1c(SCC(=O)Nc2ccc(F)cc2F)nnc1C1CCCCC1`, the Potency was inconclusive: 29.1 µM [activator, single point].
With `O=C(NCc1ccccc1)c1ccc(C2SCC(=O)N2Cc2ccccc2)cc1` (centres undefined) the Potency was inconclusive: 15.8 µM [inhibitor, partial curve, poor fit].
With `Cc1ccccc1NC(=S)N/N=C/c1ccc(O)cc1O` the Potency was inconclusive: 25.1 µM [inhibitor, single point].
In the case of `CSc1nn(Cc2cccc(C)c2)c(N)c1S(=O)(=O)c1ccccc1`, the Potency is reported as inconclusive: 15.8 µM [inhibitor, single point].
With `CC(=O)Nc1ccc(/C(C)=N/NC(=O)c2ccc(F)cc2)cc1` the Potency was inconclusive: 5.01 µM [inhibitor, partial curve, poor fit].
With `Cc1cc(C)cc(OCC(O)CN2CCN(Cc3ccc4c(c3)OCO4)CC2)c1` (centres undefined) the Potency was inconclusive: 12.6 µM [inhibitor, partial curve, poor fit].
With `COc1ccc2c(c1)CC/C(=C/c1ccncc1)C2=O` the “activity change, negative = inhibition” value was inactive: 21.5%.
In the case of `CCCCC1(C2CCCC2)NC(=O)NC1=O` (centres undefined), the Potency is reported as inconclusive: 35.5 µM [inhibitor, single point].
For `CC(C)(C)c1cc(C(=O)NC2CC2)n(Cc2ccc(F)cc2)n1`, the Potency was inconclusive: 35.5 µM [inhibitor, single point].
In the case of `COc1cc(C(=O)ONC(=O)c2ccc(OC(F)F)cc2)cc(OC)c1OC`, the Potency is reported as active: 9.2 µM.
For `O=C(Nc1nc2ccccc2[nH]1)c1ccc(Cl)c(S(=O)(=O)N2CCCC2)c1`, the Potency was inconclusive: 35.5 µM [inhibitor, single point].
With `COc1ccc(NC(=O)c2ccc(C(=O)c3ccccc3)o2)cc1` the Potency was inconclusive: 2.31 µM [inhibitor, partial curve, poor fit].
In the case of `Cc1c(C(=O)Nc2cccc(-c3nc4ccccc4s3)c2)oc2ccccc12`, the Potency is reported as inconclusive: 17.8 µM [activator, partial curve, poor fit].
In the case of `COc1ccccc1N1C(=O)CC(N2CCc3ccccc32)C1=O` (centres undefined), the “activity change, negative = inhibition” value is reported as inactive: 0.0326%.
For `Cc1ccccc1N1CCN(S(=O)(=O)c2cccs2)CC1`, the Potency was inconclusive: 5.62 µM [inhibitor, single point].
With `COc1ccc(S(=O)(=O)N2CCOCC2)cc1NC(=O)CN1C(=O)NC2(CCCCC2C)C1=O` (centres undefined) the “activity change, negative = inhibition” value was inactive: -24%.
In the case of `CCCCC(c1nnnn1CC1CCCO1)N1CCN(c2cccc(C)c2C)CC1` (centres undefined), the Potency is reported as inconclusive: 10 µM [inhibitor, partial curve].
For `O=c1[nH][nH]c(=O)n1-c1ccccc1`, the “activity change, negative = inhibition” value was inactive: 19.8% [at 46.1 µM].
For `CSc1n[nH]c(=O)n1-c1cccc(Cl)c1`, the Potency was inconclusive: 6.31 µM [inhibitor, single point].
In the case of `Cc1ccc(NC(=O)CC(C)S(=O)(=O)c2ccc3c(c2)NC(=O)CO3)c(Cl)c1` (centres undefined), the Potency is reported as inconclusive: 11.2 µM [inhibitor, partial curve, poor fit].
With `Cc1[nH]n(-c2ccccc2)c(=O)c1C(=O)c1ccccc1` the Potency was inconclusive: 20 µM [inhibitor, partial curve, poor fit].
For `NC(=O)NC(=O)CSc1nc(C2CCCCC2)n(-c2ccccc2)n1`, the Potency was inconclusive: 25.1 µM [activator, partial curve, poor fit].
For `O=C(N/N=C1\CCc2ccccc21)c1ccccc1O`, the Potency was inconclusive: 1 µM [activator, partial curve, poor fit].
With `O=C(CCCc1ccccn1)c1ccccc1` the Potency was inconclusive: 12.6 µM [inhibitor, partial curve].
For `CCc1ccc(CNCc2c(C(=O)O)n(Cc3ccc(C)cc3)c3cc(C)ccc23)cc1`, the Potency was inconclusive: 12.6 µM [inhibitor, single point].
In the case of `Cc1cc(C)n(C(=O)CCC2COc3ccccc3O2)n1` (centres undefined), the “activity change, negative = inhibition” value is reported as inactive: 10.4%.
In the case of `COc1ccc2nc(SC(C(=O)c3ccccc3)c3ccccc3)nc(C)c2c1` (centres undefined), the Potency is reported as inconclusive: 2.82 µM [inhibitor, partial curve, poor fit].
For `Cc1csc(Nc2ccccc2)[n+]1C`, the “activity change, negative = inhibition” value was inactive: 1.86%.
In the case of `COCCCN(C(=O)CCOc1ccccc1C)c1c(N)n(Cc2ccccc2)c(=O)[nH]c1=O`, the “activity change, negative = inhibition” value is reported as inactive: -15.4%.
With `COc1cc(C(=O)N=c2sc3ccccc3n2C)cc(OC)c1OC` the Potency was inconclusive: 32.6 µM [inhibitor, single point].
For `O=S(=O)(c1ccc(Cl)cc1)N1CCC(N2CCOCC2)CC1`, the Potency was inconclusive: 2.59 µM [inhibitor, partial curve, poor fit].
In the case of `O=C(NNC(=O)c1cccnc1SCc1cccc([N+](=O)[O-])c1)c1ccc(F)cc1`, the Potency is reported as inconclusive: 35.5 µM [inhibitor, single point].
For `COc1cccc(N2CC(C(=O)Nc3nnc(SCC(=O)N4CCOCC4)s3)CC2=O)c1` (centres undefined), the “activity change, negative = inhibition” value was inactive: 8.04%.
With `COC(=O)CCCNC(=O)c1ccc2[nH]c(C)c(C)c2c1` the “activity change, negative = inhibition” value was inactive: -15.6%.
With `Cc1ccc(S(=O)(=O)NCC(=O)N(CC(=O)NCc2ccco2)Cc2ccco2)cc1` the “activity change, negative = inhibition” value was inactive: -16.8% [at 46.1 µM].
In the case of `CC(=O)Nc1sc(N/N=C\c2ccccc2F)nc1-c1cccs1`, the Potency is reported as inconclusive: 12.6 µM [inhibitor, partial curve, poor fit].
With `Cc1ccc(Nc2cc(C)nn2-c2nc(C)cc(C)n2)cc1` the Potency was inconclusive: 12.6 µM [inhibitor, single point].
For `CCOc1cc(CNc2ccccc2)cc(Br)c1OCC(=O)NC(C)(C)C`, the Potency was inconclusive: 29.1 µM [inhibitor, single point].
In the case of `O=c1[nH]c(C2CCCN(S(=O)(=O)c3ccc(F)cc3)C2)nc2c1nnn2Cc1ccc(F)cc1` (centres undefined), the Potency is reported as inconclusive: 35.5 µM [inhibitor, single point].
With `Nc1nc(O)c(N=Nc2ccc(S(N)(=O)=O)cc2)c(=O)[nH]1` the Potency was inconclusive: 10 µM [activator, single point].
With `COc1ccccc1CNC(=O)CS(=O)(=O)c1ccccc1` the Potency was inconclusive: 5.62 µM [activator, partial curve].
For `COc1ccc(-c2cc3nc(C)cc(N)n3n2)cc1`, the Potency was inconclusive: 2.24 µM [inhibitor, full curve, poor fit].
With `CN(Cc1ccccc1)C1(CNC(=O)CCC(F)(F)F)Cc2ccccc2C1` the “activity change, negative = inhibition” value was inactive: -0.928%.
In the case of `Cc1ccccc1C(=O)NC(=S)Nc1ccccc1C(F)(F)F`, the “activity change, negative = inhibition” value is reported as inactive: -19.1%.
In the case of `CC(C)n1nc(CC(=O)O)c2ccccc2c1=O`, the activity change, negative = inhibition is reported as inconclusive: 46.4% [activator].
With `c1ccc2c(c1)CCN(c1nc(CN3CCOCC3)nc3sc4c(c13)CCCC4)C2` the “activity change, negative = inhibition” value was inactive: -2.16%.
For `O=C1C=C(N2CCOCC2)C2(CCCCC2)O1`, the Potency was inconclusive: 20 µM [activator, single point].
In the case of `O=C(c1cc(-c2ccco2)nc2ccccc12)N1CCN(c2ccc(F)cc2)CC1`, the Potency is reported as inconclusive: 25.9 µM [inhibitor, partial curve, poor fit].
With `CCCNC(=O)Cn1cnc2sc(C(=O)N3CCN(CCC)CC3)c(C)c2c1=O` the “activity change, negative = inhibition” value was inactive: -14.3%.
In the case of `Cc1c(CCC(=O)N2CCCCC2)c(=O)oc2cc3occ(C(C)(C)C)c3cc12`, the Potency is reported as inconclusive: 1.26 µM [inhibitor, partial curve, poor fit].
For `Cc1ccc2nc(NC(=O)CSc3ncc(C(=O)Nc4ccc(F)cc4)c(=O)n3C)sc2c1`, the “activity change, negative = inhibition” value was inactive: 8.03% [at 46.1 µM].
For `COCCNC(=O)/C(C#N)=C/c1ccc(SC)cc1`, the “activity change, negative = inhibition” value was inactive: -0.229% [at 46.1 µM].
For `Cc1ccc2c(C)c(C(=O)Nc3ccc(S(=O)(=O)Nc4onc(C)c4C)cc3)oc2c1`, the “activity change, negative = inhibition” value was inactive: -10.9% [at 46.1 µM].
For `CCOc1ccccc1N1CCN(C(=O)c2cc(-c3cc(OC)ccc3OC)nc3ccccc23)CC1`, the Potency was inconclusive: 6.31 µM [inhibitor, full curve, poor fit].
With `COc1ccc(C2CC(=O)c3c(C)nc(N4CCN(Cc5ccccc5)CC4)nc3C2)cc1OC` (centres undefined) the Potency was active: 8.2 µM.
With `N/C(=N\OC(=O)c1cccc(F)c1)c1ccccc1` the “activity change, negative = inhibition” value was inactive: 24%.
In the case of `Cc1ccc(Cl)c(NC(=O)COC(=O)c2ccccc2C(=O)c2ccc(Cl)c([N+](=O)[O-])c2)c1Cl`, the Potency is reported as active: 13 µM.
In the case of `Cc1cc(Cl)n2c(nc3cc(F)c(F)cc32)c1C#N`, the Potency is reported as inconclusive: 11.2 µM [inhibitor, partial curve, poor fit].
For `Cc1ccc(CNC(=O)CCNS(=O)(=O)c2cccc3nsnc23)cc1`, the Potency was inconclusive: 0.794 µM [inhibitor, partial curve, poor fit].
With `Cc1csc(NC(=O)CN2C(=O)COc3ccc(Cl)cc32)n1` the Potency was inconclusive: 4.47 µM [inhibitor, partial curve, poor fit].
For `O=C1c2ccccc2C(=O)c2c(NCCc3ccc(O)cc3)ccc(NCCc3ccc(O)cc3)c21`, the Potency was active: 5.17 µM.
For `CCN(CC)c1ccc(/C=C2/C(=O)c3ccc(C(=O)O)cc3C2=O)cc1`, the Potency was inconclusive: 14.1 µM [activator, single point].
